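A panel of P. falciparum strains inside erythrocytes is exposed to compounds for three days, then a DNA-binding dye reports the amount of parasite DNA.
Each compound was titrated across a series from about 0.000037 to 29 µM.
The number is the fitted AC50, the concentration giving a half-maximal change in signal; a lower value means higher potency, whether the curve shows a decrease or an increase.
Calls follow the curve class and fit quality: every row here is inconclusive, covering signal-raising curves and weak, poorly fitted, partial or highest-dose-only inhibition curves.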

Values are in µM.
All entries here are filed as inconclusive.
These entries are mostly ones the record files as inconclusive; other results of the assay are not listed here.
A potency from a partial, single-point or poor curve is only a rough figure.
Some entries filed as inconclusive have a full curve.

CCC(=O)c1ccc2c(c1)N(CCCN(C)C)c1ccccc1S2 [TAB109] read potency 7.08 µM (inhibitor, partial curve). Result for CCC(=O)c1ccc2c(c1)N(CCCN(C)C)c1ccccc1S2 [CP256] was potency 7.08 µM (inhibitor, partial curve). With CCC(=O)c1ccc2c(c1)N(CCCN(C)C)c1ccccc1S2 [CP201] the assay gave potency 5.358 µM (inhibitor, partial curve, poor fit). For CCC(=O)c1ccc2c(c1)N(CCCN(C)C)c1ccccc1S2 [CP203] the result was potency 6.012 µM (inhibitor, partial curve). Result for CCC(=O)c1ccc2c(c1)N(CCCN(C)C)c1ccccc1S2 [P94_40] was potency 7.943 µM (inhibitor, partial curve).

CCC(=O)c1ccc2c(c1)N(CCCN(C)C)c1ccccc1S2 [AA1029] gave potency 11.22 µM (inhibitor, partial curve). For CCC(=O)c1ccc2c(c1)N(CCCN(C)C)c1ccccc1S2 [ATS189] the result was potency 10 µM (inhibitor, single point). For CCC(=O)c1ccc2c(c1)N(CCCN(C)C)c1ccccc1S2 [PC26] the result was potency 19.01 µM (inhibitor, single point). CCC(=O)c1ccc2c(c1)N(CCCN(C)C)c1ccccc1S2 [N140] read potency 8.912 µM (inhibitor, partial curve). Result for CCC(=O)c1ccc2c(c1)N(CCCN(C)C)c1ccccc1S2 [CP211] was potency 12 µM (inhibitor, single point).

CCC(=O)c1ccc2c(c1)N(CCCN(C)C)c1ccccc1S2 [CP191] gave potency 11.22 µM (inhibitor, single point). CCC(=O)c1ccc2c(c1)N(CCCN(C)C)c1ccccc1S2 [JCK] read potency 10 µM (inhibitor, single point). CCC(=O)c1ccc2c(c1)N(CCCN(C)C)c1ccccc1S2 [CP238] read potency 12.59 µM (inhibitor, single point). CC(C)CN(C[C@@H](O)[C@H](Cc1ccccc1)NC(=O)O[C@H]1CCOC1)S(=O)(=O)c1ccc(N)cc1 [P94_40] gave potency 11.22 µM (inhibitor, single point). With CC(C)CN(C[C@@H](O)[C@H](Cc1ccccc1)NC(=O)O[C@H]1CCOC1)S(=O)(=O)c1ccc(N)cc1 [DIV14] the assay gave potency 16.94 µM (inhibitor, single point).

Result for CC(C)CN(C[C@@H](O)[C@H](Cc1ccccc1)NC(=O)O[C@H]1CCOC1)S(=O)(=O)c1ccc(N)cc1 [CP305] was potency 15.1 µM (inhibitor, partial curve, poor fit). For CC(C)CN(C[C@@H](O)[C@H](Cc1ccccc1)NC(=O)O[C@H]1CCOC1)S(=O)(=O)c1ccc(N)cc1 [CP335] the result was potency 16.94 µM (inhibitor, single point). CC(C)CN(C[C@@H](O)[C@H](Cc1ccccc1)NC(=O)O[C@H]1CCOC1)S(=O)(=O)c1ccc(N)cc1 [CP291] gave potency 6.746 µM (inhibitor, partial curve). Result for CC(C)CN(C[C@@H](O)[C@H](Cc1ccccc1)NC(=O)O[C@H]1CCOC1)S(=O)(=O)c1ccc(N)cc1 [CP203] was potency 13.46 µM (inhibitor, single point). CC(C)CN(C[C@@H](O)[C@H](Cc1ccccc1)NC(=O)O[C@H]1CCOC1)S(=O)(=O)c1ccc(N)cc1 [DIV30] gave potency 19.01 µM (inhibitor, single point).

CC(C)CN(C[C@@H](O)[C@H](Cc1ccccc1)NC(=O)O[C@H]1CCOC1)S(=O)(=O)c1ccc(N)cc1 [P93_24] gave potency 11.22 µM (inhibitor, partial curve). With CC(C)CN(C[C@@H](O)[C@H](Cc1ccccc1)NC(=O)O[C@H]1CCOC1)S(=O)(=O)c1ccc(N)cc1 [CP268] the assay gave potency 15.1 µM (inhibitor, single point). CC(C)CN(C[C@@H](O)[C@H](Cc1ccccc1)NC(=O)O[C@H]1CCOC1)S(=O)(=O)c1ccc(N)cc1 [ICS] read potency 17.78 µM (inhibitor, single point). CC(C)CN(C[C@@H](O)[C@H](Cc1ccccc1)NC(=O)O[C@H]1CCOC1)S(=O)(=O)c1ccc(N)cc1 [CP211] read potency 16.94 µM (inhibitor, partial curve, poor fit). CC(C)CN(C[C@@H](O)[C@H](Cc1ccccc1)NC(=O)O[C@H]1CCOC1)S(=O)(=O)c1ccc(N)cc1 [W2] gave potency 15.1 µM (inhibitor, single point).

Result for CC(C)CN(C[C@@H](O)[C@H](Cc1ccccc1)NC(=O)O[C@H]1CCOC1)S(=O)(=O)c1ccc(N)cc1 [CP325] was potency 19.01 µM (inhibitor, partial curve, poor fit). For CC(C)CN(C[C@@H](O)[C@H](Cc1ccccc1)NC(=O)O[C@H]1CCOC1)S(=O)(=O)c1ccc(N)cc1 [CP286] the result was potency 17.78 µM (inhibitor, single point). With CCC(C)C(N)C(=O)O (stereo not shown) [parasite line A] the assay gave potency 0.3548 µM (inhibitor, single point). Result for CCC(C)C(N)C(=O)O (stereo not shown) [ICS] was potency 1.778 µM (inhibitor, full curve).

Some entries from above, unchanged:

compound,setting,potency (µM),remark
CCC(C)C(N)C(=O)O (stereo not shown),parasite line A,0.3548,"inhibitor, single point"
CCC(=O)c1ccc2c(c1)N(CCCN(C)C)c1ccccc1S2,CP203,6.012,"inhibitor, partial curve"

Source: PubChem BioAssay AID504749 (NCATS, 2011).